This passage reports binding results from article PMC10411477.

Protein sequences, listed by entry. Tags and fused reporters are not part of them.
UniProt Q13153: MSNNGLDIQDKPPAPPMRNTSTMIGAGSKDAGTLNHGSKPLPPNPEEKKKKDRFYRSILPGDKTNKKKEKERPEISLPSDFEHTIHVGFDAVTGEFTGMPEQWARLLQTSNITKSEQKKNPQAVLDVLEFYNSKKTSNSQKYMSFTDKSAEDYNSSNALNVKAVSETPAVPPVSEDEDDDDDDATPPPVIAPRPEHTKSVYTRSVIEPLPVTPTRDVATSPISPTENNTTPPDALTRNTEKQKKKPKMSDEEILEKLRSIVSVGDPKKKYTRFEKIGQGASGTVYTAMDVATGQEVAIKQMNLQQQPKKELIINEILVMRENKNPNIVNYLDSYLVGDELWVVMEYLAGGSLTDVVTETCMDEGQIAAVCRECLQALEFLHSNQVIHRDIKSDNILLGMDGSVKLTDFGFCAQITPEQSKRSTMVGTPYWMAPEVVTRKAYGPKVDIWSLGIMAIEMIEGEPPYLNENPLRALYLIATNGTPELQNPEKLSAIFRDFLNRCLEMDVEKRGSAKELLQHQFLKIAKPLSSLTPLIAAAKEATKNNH
UniProt P51692: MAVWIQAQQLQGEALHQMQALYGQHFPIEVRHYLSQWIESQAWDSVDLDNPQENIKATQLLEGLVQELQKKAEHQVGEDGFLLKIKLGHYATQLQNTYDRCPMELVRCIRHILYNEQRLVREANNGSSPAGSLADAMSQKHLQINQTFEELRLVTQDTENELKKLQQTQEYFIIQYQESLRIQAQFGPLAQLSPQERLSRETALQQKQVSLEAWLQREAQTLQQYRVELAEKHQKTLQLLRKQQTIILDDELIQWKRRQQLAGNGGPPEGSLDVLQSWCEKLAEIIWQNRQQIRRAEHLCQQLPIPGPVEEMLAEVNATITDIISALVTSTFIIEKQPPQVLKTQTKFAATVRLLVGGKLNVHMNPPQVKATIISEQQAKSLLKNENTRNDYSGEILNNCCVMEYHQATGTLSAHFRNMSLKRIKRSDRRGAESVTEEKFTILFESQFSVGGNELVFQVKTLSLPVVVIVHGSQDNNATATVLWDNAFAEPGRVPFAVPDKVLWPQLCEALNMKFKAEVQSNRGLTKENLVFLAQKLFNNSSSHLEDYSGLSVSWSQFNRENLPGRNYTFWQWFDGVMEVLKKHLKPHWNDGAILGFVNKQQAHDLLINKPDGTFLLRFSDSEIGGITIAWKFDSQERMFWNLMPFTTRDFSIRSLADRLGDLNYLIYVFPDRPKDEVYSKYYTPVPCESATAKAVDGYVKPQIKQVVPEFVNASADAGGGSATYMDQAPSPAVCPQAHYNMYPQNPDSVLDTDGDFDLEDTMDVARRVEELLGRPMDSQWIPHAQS

The target in the experiment is PAK1, p21 (RAC1) activated kinase 1 (human (endogenous in OH931, NMFH1 and NMFH2)) (UniProt Q13153). The experiment in a line: co-IP; total cell lysates of parent OH931, NMFH1 and NMFH2 cells; anti-PAK1 (Cell Signaling) cross-linked with DMP to Dynabeads Protein G; eluates probed by western blot. (Immunoblotting shows a protein as a band on a membrane.)

Results are given in words; binding and its absence hold for the method and conditions named. Binding seen in cells or lysates may run through a third protein. Some entries that bind do so weakly or less than the wild type.

For the substance “STAT5B, signal transducer and activator of transcription 5B (from UniProt P51692 1-787)”, the binding result is listed as “binds”.
